# Assay results published in paper PMC4511450.
# Results are given in words; binding and its absence hold for the method and conditions named. In cells and extracts the contact can be indirect. Some binding calls cover weakened binding; strength is not graded here. Where a sequence is shown, tags or fusion partners need not be part of it.
# T1: Synaptotagmin-1 (endogenous, adult mouse forebrain) (mouse (endogenous in adult mouse forebrain)), P46096
# T1 chain: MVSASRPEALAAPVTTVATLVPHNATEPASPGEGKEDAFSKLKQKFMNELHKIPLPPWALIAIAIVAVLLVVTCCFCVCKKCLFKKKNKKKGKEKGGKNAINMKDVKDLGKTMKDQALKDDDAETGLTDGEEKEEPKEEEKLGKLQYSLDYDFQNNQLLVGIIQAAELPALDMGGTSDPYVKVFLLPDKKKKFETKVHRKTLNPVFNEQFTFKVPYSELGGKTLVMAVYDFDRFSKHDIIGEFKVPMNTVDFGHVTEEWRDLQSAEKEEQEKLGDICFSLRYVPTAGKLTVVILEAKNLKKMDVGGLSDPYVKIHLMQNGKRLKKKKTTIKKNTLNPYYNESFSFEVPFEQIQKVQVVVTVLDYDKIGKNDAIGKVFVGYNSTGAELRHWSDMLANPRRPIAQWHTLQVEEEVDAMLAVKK
# T2: APP (endogenous, adult mouse forebrain) (mouse (endogenous in adult mouse forebrain)), P12023
# T2 chain: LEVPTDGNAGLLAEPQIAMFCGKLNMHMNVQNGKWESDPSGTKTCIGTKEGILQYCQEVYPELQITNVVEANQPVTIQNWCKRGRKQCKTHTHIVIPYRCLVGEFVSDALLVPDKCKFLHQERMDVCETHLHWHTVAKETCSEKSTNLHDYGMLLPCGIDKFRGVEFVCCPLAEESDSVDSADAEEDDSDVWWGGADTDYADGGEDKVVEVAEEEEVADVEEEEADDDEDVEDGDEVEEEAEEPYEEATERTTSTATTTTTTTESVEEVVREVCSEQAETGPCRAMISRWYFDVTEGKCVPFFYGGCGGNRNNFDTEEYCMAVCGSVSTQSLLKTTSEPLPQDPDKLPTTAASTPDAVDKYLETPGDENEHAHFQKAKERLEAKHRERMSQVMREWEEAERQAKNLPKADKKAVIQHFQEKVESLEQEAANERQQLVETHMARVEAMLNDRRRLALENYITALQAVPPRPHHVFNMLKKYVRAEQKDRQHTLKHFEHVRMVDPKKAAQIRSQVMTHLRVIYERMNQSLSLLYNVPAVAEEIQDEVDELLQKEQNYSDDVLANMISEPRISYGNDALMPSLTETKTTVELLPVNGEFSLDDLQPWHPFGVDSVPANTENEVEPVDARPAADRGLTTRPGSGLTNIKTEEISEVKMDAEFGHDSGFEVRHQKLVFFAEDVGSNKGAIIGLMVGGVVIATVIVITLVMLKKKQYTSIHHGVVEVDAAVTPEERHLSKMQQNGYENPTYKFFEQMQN
# What was measured:
# [1] = target: T1, Synaptotagmin-1 (endogenous, adult …); experiment: co-IP; adult mouse forebrains extracted with 1 % Triton X-100; IP with anti-APP C66 or anti-Syt antibodies, control IgG; Western blot; endogenous proteins; details: remark: other sources report otherwise
# [2] = target: T2, APP (endogenous, adult mouse forebrain) …; experiment: as above; details: remark: other sources report otherwise
Binder,binding [1],binding [2]
"APP (endogenous, adult mouse forebrain), P12023 18-770 (protein) LEVPTDGNAGLLAEPQIAMFCGKLNMHMNVQNGKWESDPSGTKTCIGTKEGILQYCQEVYPELQITNVVEANQPVTIQNWCKRGRKQCKTHTHIVIPYRCLVGEFVSDALLVPDKCKFLHQERMDVCETHLHWHTVAKETCSEKSTNLHDYGMLLPCGIDKFRGVEFVCCPLAEESDSVDSADAEEDDSDVWWGGADTDYADGGEDKVVEVAEEEEVADVEEEEADDDEDVEDGDEVEEEAEEPYEEATERTTSTATTTTTTTESVEEVVREVCSEQAETGPCRAMISRWYFDVTEGKCVPFFYGGCGGNRNNFDTEEYCMAVCGSVSTQSLLKTTSEPLPQDPDKLPTTAASTPDAVDKYLETPGDENEHAHFQKAKERLEAKHRERMSQVMREWEEAERQAKNLPKADKKAVIQHFQEKVESLEQEAANERQQLVETHMARVEAMLNDRRRLALENYITALQAVPPRPHHVFNMLKKYVRAEQKDRQHTLKHFEHVRMVDPKKAAQIRSQVMTHLRVIYERMNQSLSLLYNVPAVAEEIQDEVDELLQKEQNYSDDVLANMISEPRISYGNDALMPSLTETKTTVELLPVNGEFSLDDLQPWHPFGVDSVPANTENEVEPVDARPAADRGLTTRPGSGLTNIKTEEISEVKMDAEFGHDSGFEVRHQKLVFFAEDVGSNKGAIIGLMVGGVVIATVIVITLVMLKKKQYTSIHHGVVEVDAAVTPEERHLSKMQQNGYENPTYKFFEQMQN",binds,–
"Synaptotagmin-1 (endogenous, adult mouse forebrain), P46096 1-421 (protein) MVSASRPEALAAPVTTVATLVPHNATEPASPGEGKEDAFSKLKQKFMNELHKIPLPPWALIAIAIVAVLLVVTCCFCVCKKCLFKKKNKKKGKEKGGKNAINMKDVKDLGKTMKDQALKDDDAETGLTDGEEKEEPKEEEKLGKLQYSLDYDFQNNQLLVGIIQAAELPALDMGGTSDPYVKVFLLPDKKKKFETKVHRKTLNPVFNEQFTFKVPYSELGGKTLVMAVYDFDRFSKHDIIGEFKVPMNTVDFGHVTEEWRDLQSAEKEEQEKLGDICFSLRYVPTAGKLTVVILEAKNLKKMDVGGLSDPYVKIHLMQNGKRLKKKKTTIKKNTLNPYYNESFSFEVPFEQIQKVQVVVTVLDYDKIGKNDAIGKVFVGYNSTGAELRHWSDMLANPRRPIAQWHTLQVEEEVDAMLAVKK",–,binds
